The source of these data is patent US20170275335 (published 2017).

The nature of this data set: general procedure: Fmoc solid-phase peptide synthesis; 2-chlorotrityl (CTC) resin; HCTU/DIEA; DIPCDI/HOBt for Cys. Particulars: for crude HPLC purity: oxidative folding step; for crude HPLC purity / final HPLC purity: analytical HPLC, UV 220 nm; for step yield / final HPLC purity: purification step.
[1] abbreviates: trifluoroacetic acid salt (Example 21), TFA removed by further RP-HPLC (Example 22).

For the substance linaclotide, the “crude HPLC purity” value runs as follows: (trifluoroacetic acid salt (Example 21), TFA removed by further RP-HPLC (Example 22), h-0009) 59.92%; (trifluoroacetic acid salt (Example 21), TFA removed by further RP-HPLC (Example 22), h-0012) 57%; (trifluoroacetic acid salt (Example 21), TFA removed by further RP-HPLC (Example 22), h-0015) 46.02%; (trifluoroacetic acid salt (Example 21), TFA removed by further RP-HPLC (Example 22), h-0024) 67.5%; (trifluoroacetic acid salt (Example 21), TFA removed by further RP-HPLC (Example 22), h-0027) 69.56%%; (trifluoroacetic acid salt (Example 21), TFA removed by further RP-HPLC (Example 22), h-0030) 59.11%. Moreover, the “crude HPLC purity” value runs as follows: (trifluoroacetic acid salt (Example 21), TFA removed by further RP-HPLC (Example 22), h-0033) 42.70%; (trifluoroacetic acid salt (Example 21), TFA removed by further RP-HPLC (Example 22), h-0036) 29.43%; (trifluoroacetic acid salt (Example 21), TFA removed by further RP-HPLC (Example 22), h-0043) 42.3%; (trifluoroacetic acid salt (Example 21), TFA removed by further RP-HPLC (Example 22), h-0046) 35-40%; (trifluoroacetic acid salt (Example 21), TFA removed by further RP-HPLC (Example 22), h-0049) 33.9%; (trifluoroacetic acid salt (Example 21), TFA removed by further RP-HPLC (Example 22), run 1) 63.38%. The step yield worked out at 50% (TFA salt) and 49% under setting [1]. Further, the “final HPLC purity” value is, setting by setting: (TFA salt) 99.07%; under setting [1], 99.6%.
